Values from PubChem BioAssay AID1259405 (NCATS, 2018).

Purpose: 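Mouse-designed siRNAs used to find CHO productivity engineering targets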 (primary screen)
System: Chinese hamster CHO-K1 ovary cells with stable secreted eGFP expression
Reagent: single siRNA against mouse genes, 0.8 pmol siRNA per well (2 µl of 400 nM stock)
Timing: 3 days
Measurement: 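Per-well intracellular GFP measured by laser scanning cytometry, plus viability from ATP luminescence, each relative to plate median of non-targeting control wells, in %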
Scale: GFP, % of control: higher = more GFP per well, higher productivity; viability (ATP), % of control: higher = more viable cells (more ATP)
Rule for the call: 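Called active when intracellular GFP, relative to negative control, is at or above 120%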
Here is an unselected part of about 50,000 reagents tested. In the full data, about 4,000 (8%) got an active call. 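Mouse siRNA library applied to hamster cells; one well for each siRNA.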

no.	gene	PubChem SID	GFP, % of control	viability (ATP), % of control	Outcome
1	Nap1l3 (nucleosome assembly protein 1-like 3)	SID363547712	158	62	active
2	Nap1l3 (nucleosome assembly protein 1-like 3)	SID363558481	60.2	72.9	inactive
3	Nap1l3 (nucleosome assembly protein 1-like 3)	SID363560239	53.4	45.4	inactive
4	Pou3f1 (POU domain, class 3, transcription factor 1)	SID363573609	93	108	inactive
5	Pou3f1 (POU domain, class 3, transcription factor 1)	SID363581353	101	74.2	inactive
6	Pou3f1 (POU domain, class 3, transcription factor 1)	SID363583817	75	78.9	inactive
7	Aldh1b1 (aldehyde dehydrogenase 1 family, member B1)	SID363575144	97	86.5	inactive
8	Aldh1b1 (aldehyde dehydrogenase 1 family, member B1)	SID363580776	64.4	68.3	inactive
9	Aldh1b1 (aldehyde dehydrogenase 1 family, member B1)	SID363582888	55.9	86.8	inactive
10	Tmtc3 (transmembrane and tetratricopeptide repeat containing 3)	SID363545303	113	71.3	inactive
11	Tmtc3 (transmembrane and tetratricopeptide repeat containing 3)	SID363548816	72.3	90.2	inactive
12	Tmtc3 (transmembrane and tetratricopeptide repeat containing 3)	SID363562622	68.7	61.4	inactive
13	Cfap69 (cilia and flagella associated protein 69)	SID363542725	127	88.8	active
14	Cfap69 (cilia and flagella associated protein 69)	SID363546242	95.7	71.4	inactive
15	Cfap69 (cilia and flagella associated protein 69)	SID363547998	77.1	72.7	inactive
16	Slc17a8	SID363574684	96.3	73.5	inactive
17	Slc17a8	SID363575740	114	73.9	inactive
18	Slc17a8	SID363580316	62.7	60.3	inactive
19	Iqcf3 (IQ motif containing F3)	SID363540570	98.1	56	inactive
20	Iqcf3 (IQ motif containing F3)	SID363543021	89	97.8	inactive
21	Iqcf3 (IQ motif containing F3)	SID363552514	108	104	inactive
22	Tigd3 (tigger transposable element derived 3)	SID363569371	72.2	109	inactive
23	Tigd3 (tigger transposable element derived 3)	SID363577115	97.3	58.1	inactive
24	Tigd3 (tigger transposable element derived 3)	SID363578523	81.1	57.7	inactive
25	Retn (resistin)	SID363554957	63.3	41.9	inactive
26	Retn (resistin)	SID363568404	72.3	55.7	inactive
27	Retn (resistin)	SID363586463	67.4	93.4	inactive
28	Wdr27 (WD repeat domain 27)	SID363540853	39.5	62.8	inactive
29	Wdr27 (WD repeat domain 27)	SID363543304	47.1	67.8	inactive
30	Wdr27 (WD repeat domain 27)	SID363552797	57	56.7	inactive
31	Ufl1 (UFM1 specific ligase 1)	SID363543473	65.3	86.4	inactive
32	Ufl1 (UFM1 specific ligase 1)	SID363552966	4.95	4.96	inactive
33	Ufl1 (UFM1 specific ligase 1)	SID363558814	45.2	57.8	inactive
34	Tcn2 (transcobalamin 2)	SID363545774	107	79.9	inactive
35	Tcn2 (transcobalamin 2)	SID363549287	66.7	81.9	inactive
36	Tcn2 (transcobalamin 2)	SID363563093	24	69.2	inactive
37	Or6c38 (olfactory receptor family 6 subfamily C member 38)	SID363554669	92.3	66.7	inactive
38	Or6c38 (olfactory receptor family 6 subfamily C member 38)	SID363568116	100	71.5	inactive
39	Or6c38 (olfactory receptor family 6 subfamily C member 38)	SID363586175	95.7	90.6	inactive
40	Cdc42 (cell division cycle 42)	SID363570223	91.1	96.5	inactive
41	Cdc42 (cell division cycle 42)	SID363576559	4.8	5.19	inactive
42	Cdc42 (cell division cycle 42)	SID363579727	19.4	18.7	inactive
43	Bloc1s6	SID363581766	102	48.6	inactive
44	Bloc1s6	SID363589260	87.8	51.8	inactive
45	Capns1 (calpain, small subunit 1)	SID363553649	74.6	94.3	inactive
46	Capns1 (calpain, small subunit 1)	SID363561606	45.5	33.7	inactive
47	Capns1 (calpain, small subunit 1)	SID363565344	72.1	74.4	inactive
48	Sh3kbp1 (SH3-domain kinase binding protein 1)	SID363541794	56.2	49.1	inactive
49	Sh3kbp1 (SH3-domain kinase binding protein 1)	SID363553386	69.7	67.7	inactive
50	Sh3kbp1 (SH3-domain kinase binding protein 1)	SID363566710	75.4	68.1	inactive
51	Etv2 (ets variant 2)	SID363555454	94.5	85.1	inactive
52	Etv2 (ets variant 2)	SID363564115	50.5	69	inactive
53	Etv2 (ets variant 2)	SID363587661	87.6	80.8	inactive
54	Mrps33 (mitochondrial ribosomal protein S33)	SID363553930	87.4	68.4	inactive
55	Mrps33 (mitochondrial ribosomal protein S33)	SID363561887	70.1	63.5	inactive
56	Mrps33 (mitochondrial ribosomal protein S33)	SID363565625	115	112	inactive
57	Tnfrsf21 (tumor necrosis factor receptor superfamily, member 21)	SID363568807	108	84.5	inactive
58	Tnfrsf21 (tumor necrosis factor receptor superfamily, member 21)	SID363576199	73.8	51.4	inactive
59	Tnfrsf21 (tumor necrosis factor receptor superfamily, member 21)	SID363579015	141	98.9	active
60	A730018C14Rik (RIKEN cDNA A730018C14 gene)	SID363542666	78.9	91	inactive
61	A730018C14Rik (RIKEN cDNA A730018C14 gene)	SID363546183	37.6	33.7	inactive
62	A730018C14Rik (RIKEN cDNA A730018C14 gene)	SID363547939	50.3	56	inactive
63	Sct (secretin)	SID363541755	64.6	78.8	inactive
64	Sct (secretin)	SID363553347	58.5	49.5	inactive
65	Sct (secretin)	SID363566671	66.7	40.8	inactive
66	Col27a1 (collagen, type XXVII, alpha 1)	SID363553740	82.9	71.7	inactive
67	Col27a1 (collagen, type XXVII, alpha 1)	SID363561697	129	75.5	active
68	Col27a1 (collagen, type XXVII, alpha 1)	SID363565435	93.2	70.8	inactive
69	Dnaja2 (DnaJ heat shock protein family (Hsp40) member A2)	SID363572508	130	92.1	active
70	Dnaja2 (DnaJ heat shock protein family (Hsp40) member A2)	SID363577788	85.7	78.7	inactive
71	Dnaja2 (DnaJ heat shock protein family (Hsp40) member A2)	SID363582012	59.2	107	inactive
72	Abhd1 (abhydrolase domain containing 1)	SID363569788	89.9	73.4	inactive
73	Abhd1 (abhydrolase domain containing 1)	SID363576828	67.6	61.7	inactive
74	Abhd1 (abhydrolase domain containing 1)	SID363578236	119	102	inactive
75	Maea (macrophage erythroblast attacher)	SID363562333	65.3	59.1	inactive
76	Maea (macrophage erythroblast attacher)	SID363567471	65.2	64.5	inactive
77	Maea (macrophage erythroblast attacher)	SID363584828	34.9	68.6	inactive
78	Bcat2 (branched chain aminotransferase 2, mitochondrial)	SID363570690	77.5	97.1	inactive
79	Bcat2 (branched chain aminotransferase 2, mitochondrial)	SID363579490	204	121	active
80	Bcat2 (branched chain aminotransferase 2, mitochondrial)	SID363583362	104	111	inactive
81	Rlig1 (RNA 5'-phosphate and 3'-OH ligase 1)	SID363542426	98.1	95.5	inactive
82	Rlig1 (RNA 5'-phosphate and 3'-OH ligase 1)	SID363551917	85.1	73.8	inactive
83	Rlig1 (RNA 5'-phosphate and 3'-OH ligase 1)	SID363559522	61.9	84	inactive
84	Lrrc4 (leucine rich repeat containing 4)	SID363544325	96.4	73.9	inactive
85	Lrrc4 (leucine rich repeat containing 4)	SID363550653	72.1	57.1	inactive
86	Lrrc4 (leucine rich repeat containing 4)	SID363557202	111	83.5	inactive
